Laboratory results published in PubChem BioAssay AID504834 (National Center for Advancing Translational Sciences (NCATS), 2011).
Out of some 320,000 compounds screened, about 22,000 (6.9%) were called active. Inconclusive results, whose numbers are uncertain, are shown with a selection of clear calls. Calls come from the whole dose curve; as a rule, active = well fitted inhibition curve with a large enough effect; inconclusive = small, poorly fitted or top-dose-only effect, or another doubt; inactive = no such curve, though single readings can be large or run the other way. Potencies of inconclusive entries are doubtful fits and often do not repeat.

experiment: Primary qHTS for delayed death inhibitors of the malarial parasite plastid, 96 hour incubation; conditions: P. falciparum luciferase reporter growth; series mostly up to 28.7 µM
Summary of the method: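 Infected RBCs, 2% Hct / 0.05% parasitemia final; luciferase-reporter P. falciparum; cpd 96 h, 37 C, 5% CO2; luciferase detection reagent; luminescence.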
Potency is the fitted concentration of half-maximal effect.

| SMILES | Potency |
| --- | --- |
| Cc1nn(S(=O)(=O)c2ccc(Cl)cc2)c(C)c1Sc1ccc([N+](=O)[O-])cc1 | inconclusive: 18.5 µM [inhibitor, single point] |
| Oc1ccc(N=Cc2ccc(-c3cccs3)s2)cc1 | inconclusive: 10.4 µM [inhibitor, single point] |
| O=Nc1c(O)[nH]c2c(F)cccc12 | inconclusive: 18.5 µM [inhibitor, single point] |
| O=S(=O)(c1ccccc1)[C@@]1(c2ccccc2)C[C@@H]2ON=C(c3cccc(-c4ccccc4)c3)[C@@H]2C1 | inconclusive: 10.4 µM [inhibitor, single point] |
| Cc1cc(OCC(=O)NCc2ccncc2)c2c3c(c(=O)oc2c1)CCC3 | inconclusive: 18.5 µM [inhibitor, single point] |
| CC(C)CN=C(NS(=O)(=O)c1ccccc1)C(Cl)(Cl)Cl | active: 10.4 µM |
| COc1ccc(CNC(=O)C(c2ccccc2F)N(C(=O)c2csnn2)C2CC2)cc1 (stereo not given) | inconclusive: 18.5 µM [inhibitor, single point] |
| O=C(NC1CC1)C1CCN(C2CCN(C(=O)c3ccc(C(F)(F)F)cc3)CC2)CC1 | inconclusive: 2.94 µM [inhibitor, partial curve, poor fit] |
| CCn1ccnc1[C@@H]1C[C@H]2CN(Cc3cccc(Cl)c3)C(=O)[C@]23CCCN13 | inactive |
| Nc1cc(-c2ccc(Cl)cc2)nn1S(=O)(=O)c1cccc2nsnc12 | inconclusive: 18.5 µM [inhibitor, single point] |
| CCCC(c1nnnn1C(C)(C)CC)N(CCCO)Cc1cc2cc(C)cc(C)c2[nH]c1=O (stereo not given) | inconclusive: 8.28 µM [inhibitor, partial curve, poor fit] |
| CCCCN1C(=S)SC(C)(C)C1/[N+]([O-])=C/c1ccc(S(=O)(=O)NC)cc1 (stereo not given) | inconclusive: 0.465 µM [inhibitor, full curve, poor fit] |
| COc1ccc(-n2cc(CNCCc3cscn3)c(-c3ccccc3Cl)n2)cc1 | inconclusive: 18.5 µM [inhibitor, single point] |
| COc1ccc(CCNC(=O)c2oc3ccc(OC)cc3c2C)cc1 | inactive |
| CC1(CCc2ccccc2)NC(=O)N(CC(=O)O)C1=O (stereo not given) | inactive |
| COc1ccccc1C(=O)N1CCN(C2CCN(Cc3ccccc3)CC2)CC1 | inactive |
| CCOc1ccc(Br)cc1S(=O)(=O)Nc1cccnc1 | inactive |
| Cc1nc2scc(C)n2c(=O)c1S(=O)(=O)NCc1ccc(F)cc1 | inconclusive: 18.5 µM [inhibitor, single point] |
| CC(C)CCNC(=O)CCc1nnc2ccc(N3CCC(C)CC3)nn12 | inconclusive: 11.7 µM [inhibitor, partial curve, poor fit] |
| O=C(Cn1c(CCCO)nc2ccccc21)Nc1ccccc1-c1ccccc1 | inactive |
| O=C(Nc1ccccc1N1CCCCC1)c1ccccc1F | inconclusive: 0.657 µM [inhibitor, partial curve, poor fit] |
| Cc1cccc(Nc2nc(N)c([N+](=O)[O-])c(N3CCOCC3)n2)c1 | inconclusive: 10.4 µM [inhibitor, single point] |
| Cc1ccc(NC(=O)COC(=O)C2=COCCO2)cc1 | inconclusive: 18.5 µM [inhibitor, single point] |

Two entries from above, with tabs.
SMILES	Potency
CC(C)CN=C(NS(=O)(=O)c1ccccc1)C(Cl)(Cl)Cl	active: 10.4 µM
CCn1ccnc1[C@@H]1C[C@H]2CN(Cc3cccc(Cl)c3)C(=O)[C@]23CCCN13	inactive

The listing continues:

| SMILES | Potency |
| --- | --- |
| COc1ccc(/C=C(\C#N)C(=O)OCC(=O)NCc2ccccc2OC)cc1 | inconclusive: 18.5 µM [inhibitor, single point] |
| O=C(O)C(Cc1ccc(Cl)cc1)NS(=O)(=O)c1ccc(Cl)cc1 (stereo not given) | inactive |
| O=[N+]([O-])c1cc(S(=O)(=O)N2CCCCCC2)ccc1F | inconclusive: 4.65 µM [inhibitor, partial curve, poor fit] |
| Cc1nc(C2COc3ccccc3O2)sc1C(=O)O (stereo not given) | inconclusive: 18.5 µM [inhibitor, single point] |
| Cc1cc(C)cc(NC(=S)NC2CC3CCCC(C2)N3C2CCCC2)c1 (stereo not given) | inactive |
| Cc1cccc(C)c1OCc1cc(C(=O)N2CCCC2c2nonc2C)no1 (stereo not given) | inactive |
| COc1ccccc1/C=C/C(=O)c1ccc(NC(C)=O)cc1 | inactive |
| Cc1oc(S(=O)(=O)N2CCCCC2)cc1NC(=O)Nc1ccc(F)cc1 | active: 5.86 µM |
| COc1ccccc1NS(=O)(=O)c1cccc2cccnc12 | inconclusive: 18.5 µM [inhibitor, single point] |
| COc1cccc(CNc2ccc3c(c2)CCC3)c1 | inactive |
| Cc1cccc(C(C)C)c1NC(=O)COC(=O)c1cccc(S(=O)(=O)N2CCc3ccccc3C2)c1 | inactive |
| COc1cccc(N2CC(O)=C(c3nc4ccccc4c(=O)[nH]3)C2=N)c1 | inconclusive: 0.147 µM [inhibitor, full curve] |
| C#CC[N+](C)(C)CCCCCCCCC | inconclusive: 0.522 µM [inhibitor, full curve, poor fit] |
| CCOc1ccc(-c2nnn(CC#N)n2)cc1OC | inconclusive: 16.5 µM [inhibitor, single point] |
| CC(Oc1ccccc1)C(=O)Nc1ccc(S(=O)(=O)N2CCN(C)CC2)cc1 (stereo not given) | active: 0.0657 µM |
| CC(=O)Nc1sc2c(c1C#N)CCN(Cc1ccccc1)C2 | inactive |
| Cn1c(N)c(N=O)c(=O)n(C)c1=O | inconclusive: 4.15 µM [inhibitor, single point] |
| COCCn1cnc2c1c(=O)n(CC(=O)OCC#N)c(=O)n2Cc1ccccc1 | inconclusive: 9.28 µM [inhibitor, single point] |
| COc1cccc(NC(=O)C2C3C=CC4(O3)C2C(=O)N(CCCN2CCCCC2)C4C(=O)NC2CCCCC2)c1 (stereo not given) | inconclusive: 1.65 µM [inhibitor, full curve] |
| COCc1c(C(=O)Nc2ccc3nc(N4CCOCC4)sc3c2)oc2ccccc12 | inconclusive: 4.65 µM [inhibitor, partial curve, poor fit] |
| COc1cc2c(cc1OC)C(C)N(C(=O)Nc1ccc(F)cc1)CC2 (stereo not given) | inactive |
| COc1cc(CN(C(=O)c2ccco2)c2ccc(C)cc2)ccc1O | inconclusive: 8.28 µM [inhibitor, partial curve, poor fit] |
